The values that follow come from paper PMC11455913.

Chains of the proteins cited; added tags and fusions are not shown.
UniProt P14618: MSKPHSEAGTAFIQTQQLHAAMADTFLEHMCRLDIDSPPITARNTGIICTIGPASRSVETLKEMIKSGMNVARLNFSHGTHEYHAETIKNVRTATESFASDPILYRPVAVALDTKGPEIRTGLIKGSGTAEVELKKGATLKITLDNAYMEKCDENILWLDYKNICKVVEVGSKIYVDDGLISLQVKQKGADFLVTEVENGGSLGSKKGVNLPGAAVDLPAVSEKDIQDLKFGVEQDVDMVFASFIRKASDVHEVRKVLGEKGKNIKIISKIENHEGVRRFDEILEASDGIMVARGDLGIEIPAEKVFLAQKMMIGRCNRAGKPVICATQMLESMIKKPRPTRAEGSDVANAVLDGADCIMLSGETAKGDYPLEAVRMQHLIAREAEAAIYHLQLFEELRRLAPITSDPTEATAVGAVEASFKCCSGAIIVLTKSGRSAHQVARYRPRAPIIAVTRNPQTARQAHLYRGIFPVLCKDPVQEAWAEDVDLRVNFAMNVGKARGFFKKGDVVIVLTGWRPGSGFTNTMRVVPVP
UniProt P04406: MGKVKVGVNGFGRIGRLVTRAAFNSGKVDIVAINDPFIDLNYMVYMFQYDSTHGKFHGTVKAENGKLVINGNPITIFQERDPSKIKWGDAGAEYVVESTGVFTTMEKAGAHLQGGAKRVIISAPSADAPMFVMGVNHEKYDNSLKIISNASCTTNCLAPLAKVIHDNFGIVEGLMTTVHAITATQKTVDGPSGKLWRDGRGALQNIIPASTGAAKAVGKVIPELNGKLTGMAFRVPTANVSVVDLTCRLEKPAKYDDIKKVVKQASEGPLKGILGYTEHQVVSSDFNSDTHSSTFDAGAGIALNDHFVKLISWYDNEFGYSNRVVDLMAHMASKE

These are yes or no findings as the source states them, for the method shown. In cells and extracts the contact can be indirect. A yes stands for co-enrichment or nearness to the bait. Other partners may have been found. Sequences can lack the tags named with a protein.

The target of the experiment is T1, FLAG-tagged CHAC1 (glutathione-specific gamma-glutamylcyclotransferase 1) (human) (UniProt Q9BUX1).
T1 sequence: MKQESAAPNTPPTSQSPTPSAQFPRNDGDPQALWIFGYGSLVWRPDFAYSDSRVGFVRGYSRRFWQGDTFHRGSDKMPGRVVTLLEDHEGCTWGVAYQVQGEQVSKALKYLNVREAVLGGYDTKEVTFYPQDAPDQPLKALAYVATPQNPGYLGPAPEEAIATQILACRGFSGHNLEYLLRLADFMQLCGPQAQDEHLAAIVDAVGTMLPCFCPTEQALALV
Briefly: affinity purification with mass spectrometry; anti-FLAG monoclonal antibodies and paramagnetic beads on lysate of CHAC1 OE A549 cells; SDS-PAGE, silver staining, shotgun LC-MS/MS.

“PKM2 (pyruvate kinase M2), endogenous (from UniProt P14618 1-531)”: the binding result is recorded as “binds”.
With “GAPDH, endogenous (from UniProt P04406 1-335)” the entry was “binds”.
